Measurements as given in PubChem BioAssay AID977622 (Broad Institute, 2014).
Some of the results follow. These are further read-outs of the screen, such as a control signal, another cell line or another target. No call is given for them.

Columns and labels:
[1] = wild-type E. coli growth inhibition versus h38 humanized strain – h38 mutant RFP, wild-type GFP, cherry-pick, dose response (AID 977622); conditions: E. coli mixed culture, 24 h, total growth OD600 at 50 uM
[2] = tested on: E. coli h38 humanized mutant ribosome RFP fluorescence, mixed culture, 24 h; assay: as above; conditions: h38 mutant RFP at 50 uM

| SMILES | activity change [1] [%] | activity change [2] [%] |
| --- | --- | --- |
| CO[C@@H]1CN(C)C(=O)c2ccc(NC(=O)c3nc4ccccc4s3)cc2OC[C@@H](C)N(Cc2ccncc2)C[C@@H]1C | -90 | -21.2 |
| COc1cccc(SCC(=O)N2CCN(c3ccccc3)CC2)c1 | -15.7 |  |
| Cc1cc(C)nc(SCc2cn3c(C)cccc3n2)n1 | -46.2 | 47.5 |
| c1ccc(Cc2nc3ccccc3s2)cc1 | -13.6 | 35.4 |
| COc1ccc(OCCC(=O)OCC(=O)NCCC2=CCCCC2)cc1 | -9.19 | 21 |
| CC(C)(C)c1ccc(C(CC(=O)O)NC(=O)Cc2ccc(Cl)cc2)cc1 (centres undefined) | -17 |  |
| CC(C)Oc1ccc(C(CC(=O)O)NC(=O)C(Sc2ccccc2)c2ccccc2)cc1 (centres undefined) | -15.2 |  |
| Cn1c(-[n+]2c(-c3ccccc3)cc(-c3ccccc3)cc2-c2ccccc2)nc2c([N+](=O)[O-])cccc21 | -53.3 | -3.4 |
| Nc1nc(Nc2ccccc2F)nc(NCc2ccco2)c1[N+](=O)[O-] | -81.4 |  |
| O=C(Nc1cc(F)ccc1F)N1CCCCN2[C@@H](CO)[C@H](c3ccc(-c4cccnc4)cc3)[C@@H]2C1 | -11.1 | 7.23 |
| CCCn1c(C(C)Nc2nc(-c3ccc(C)cc3)cs2)nc2ccccc21 (centres undefined) | -3.25 | 63 |
| CC(=O)Nc1ccc(NS(=O)(=O)c2ccc(Cl)s2)cc1 | -24.6 | -2.02 |
| O=C(Nc1cc(Cl)ccc1-n1cncn1)c1ccc([N+](=O)[O-])o1 | -36.8 |  |
| O=C(Cc1cccc(NC(=O)C2CCCN(C(=O)CCc3ccccc3)C2)c1)Nc1cccc(C(=O)N2CCCC2)c1 (centres undefined) | -26.3 | 15.6 |
| O=C(CCC1CCCN(C(=O)c2ccsc2)C1)N1CCN(c2ccccn2)CC1 (centres undefined) | 3.17 |  |
| COC(=O)c1cc(C)sc1NC(=O)CC1Nc2ccccc2NC1=O (centres undefined) | -0.704 | 4.95 |
| S=c1nc(-c2cc(Cl)cc(Cl)c2)[nH][nH]1 | -37.2 | -15.3 |
| O=C1CN(S(=O)(=O)c2ccc(Cl)cc2)c2ccccc2N1 | -40.6 |  |
| O=C(Nc1ccc(Cl)c(Cl)c1)N[C@@H]1CC[C@H](CCn2cc(C3CCCCC3)nn2)O[C@H]1CO | -83.1 | 9.58 |
| Cc1ccccc1S(=O)(=O)NC(=O)C1(C)CCN1C(=O)C1(c2ccc(Cl)cc2)CC1 (centres undefined) | -6.16 | 11.3 |
| Cc1cccc(-c2ccc([C@H]3[C@H]4CN(S(=O)(=O)c5ccccc5C)CCCCN4[C@H]3CO)cc2)c1 | -1.99 | 16 |
| COc1ccc(-c2cn(-c3ccc(Cl)cc3)c3[n+]2CCCCC3)cc1 | -18.7 | -4.48 |

| SMILES | activity change [1] [%] | activity change [2] [%] |
| --- | --- | --- |
| CCCCNC(=O)c1c(N)[nH]c(C(=O)c2ccccc2)c1-c1ccccn1 | -10 | 9.58 |
| CC1CCN(C(=O)COC(=O)c2ccccc2NC(=O)c2ccco2)CC1 | -2.86 | -6.98 |
| COc1ccc(OC)c(N(CC(=O)Nc2ccccc2F)S(=O)(=O)c2ccccc2)c1 | -27.1 | 2.07 |
| CCOc1ccc(S(=O)(=O)Nc2ccc(S(=O)(=O)N3CCCC3)cc2)cc1 | -31.5 | 0.068 |
| CCN(Cc1ccccc1)C(=O)COC(=O)c1cc(Cl)nc(Cl)c1 | 2.8 | 4.65 |
| Cc1noc(C)c1NC(=O)Nc1ccc2c(c1)C(=O)N([C@H](C)CO)C[C@H](C)[C@@H](CN(C)C(=O)Nc1ccc3c(c1)OCO3)OCCCC[C@H](C)O2 | -2.59 | 2.56 |
| Cc1ccc(-c2cc(-c3ccc(C)cc3)[n+](-c3ccc(C(=O)[O-])cc3)c(-c3ccc(C)cc3)c2)cc1 | -18.7 | 25.4 |
| CCc1ccc(NC(=O)COC(=O)CCCC2=NS(=O)(=O)c3ccccc3N2)cc1 | -30.3 |  |
| O=C(Nc1nc(-c2ccccc2)cs1)c1ccccc1F | -60.7 |  |
| Cc1cccc(SCC(=O)Nc2ccccc2[N+](=O)[O-])c1 | -14.7 | -20.4 |
| O=C(OCC(=O)N1CCOCC1)c1cccc(S(=O)(=O)N2CCCc3ccccc32)c1 | -16.1 | 12.1 |
| Cc1cccc(-c2ccc([C@@H]3[C@@H](CO)N4CCCCN(S(=O)(=O)c5ccccc5C)C[C@H]34)cc2)c1 | -25.2 | 20.3 |
| CCc1nnc(NC(=O)CSc2ncc(-c3ccccc3)[nH]2)s1 | -2.2 | -10.1 |
| O=C(Cc1cccc(NC(=O)C2CCN(C(=O)C3CCCCC3)CC2)c1)Nc1cccc(C(=O)N2CCCC2)c1 | -22.2 | 3.23 |
| CC[N+](CC)(CC#Cc1ccccc1)CC#Cc1ccccc1 | -31 | 37.4 |
| COc1cccc(NC(=O)C2CCC(CNS(=O)(=O)c3cccc4cccnc34)CC2)c1 (centres undefined) | -14.4 | 5.19 |
| Cc1ccsc1C(=O)N1CCCC(C(=O)c2cc(F)ccc2F)C1 (centres undefined) | -20.1 | -3.1 |
| CCN(CC)S(=O)(=O)c1cccc(NC(=O)COc2ccc(F)cc2Br)c1 | -91 | -11.5 |
| CCc1nc2ccccc2n1CCc1ccccc1 | -33.5 | 23.4 |
| CC1CN(CC(=O)Nc2nc3ccccc3s2)CC(C)O1 (centres undefined) | -12.8 |  |
| CCc1cc2ccc(OC)cc2nc1SCC(=O)N1CCN(C(=O)c2ccco2)CC1 | -52.8 |  |
| Cc1ccc(-n2nnnc2-c2ccccc2Br)cc1 | -48.2 | -12.7 |

Reformatted: entries from further up
SMILES	activity change [1] [%]	activity change [2] [%]
Cc1noc(C)c1NC(=O)Nc1ccc2c(c1)C(=O)N([C@H](C)CO)C[C@H](C)[C@@H](CN(C)C(=O)Nc1ccc3c(c1)OCO3)OCCCC[C@H](C)O2	-2.59	2.56
Cc1ccc(-c2cc(-c3ccc(C)cc3)[n+](-c3ccc(C(=O)[O-])cc3)c(-c3ccc(C)cc3)c2)cc1	-18.7	25.4
CCc1ccc(NC(=O)COC(=O)CCCC2=NS(=O)(=O)c3ccccc3N2)cc1	-30.3	
O=C(Nc1nc(-c2ccccc2)cs1)c1ccccc1F	-60.7	
Cc1cccc(SCC(=O)Nc2ccccc2[N+](=O)[O-])c1	-14.7	-20.4

(more compounds)

| SMILES | activity change [1] [%] | activity change [2] [%] |
| --- | --- | --- |
| N#Cc1cccc(-c2ccc3c(c2)[C@@H]2[C@@H](CCN2S(=O)(=O)c2cccc(F)c2)[C@H](CO)N3)c1 | -51.2 | -28.4 |
| O=C(CSc1nc2scc(-c3ccccc3)c2c(=O)[nH]1)N1CCCCC1 | -57.3 | -28.3 |
| NS(=O)(=O)c1ccc(CCNC(=O)CCCCCNc2nc(=S)[nH]c3ccccc23)cc1 | -10 |  |
| COC(=O)CNC(=O)COC(=O)c1ccc(Cl)nc1 | -25.5 |  |
| COC(=O)c1nc(-c2ccc(C)cc2)[nH]c1C(C)(C)C | -10.1 | -12.6 |
| CCCCNc1ccc2c(c1)OC[C@@H](Cc1ccccc1)NS2(=O)=O | -72.5 | 32.4 |
| CCOC(=O)CCSc1n[nH]c(=S)s1 | -8.54 | 23.6 |
| COc1ccc(C2=Nc3ccccc3NC(=O)C2N(C(=O)c2ccnc3ccccc23)c2ccccc2)cc1 (centres undefined) | -55.1 | 7.44 |
| C[C@@H]1CCCCO[C@H](CN(C)C(=O)CCCN(C)C)[C@H](C)CN([C@H](C)CO)C(=O)c2cc(NC(=O)Nc3cccc4ccccc34)ccc2O1 | -3.82 | 21.3 |
| COc1ccc(OC)c(-c2nnc3n2N=C(c2ccc(OC)c(OC4CCOC4)c2)CS3)c1 (centres undefined) | -44.8 |  |
| CSc1nc2nc3c(cc2c(=O)n1-c1ccccc1C)CCCC3 | -10.5 | -3.69 |
| COc1cccc(-c2ccc([C@@H]3[C@H](CO)N4CCCCN(S(=O)(=O)c5cccs5)C[C@@H]34)cc2)c1 | -72.7 | -53.6 |
| O=C(c1cc2cc(F)ccc2[nH]1)N1CCN(Cc2ccc3c(c2)OCO3)CC1 | -81.6 | 15.1 |
| Cc1ccc(C(=O)NCC(=O)OCC(=O)Nc2cccc(S(=O)(=O)N3CCCC3)c2)cc1C | -2.77 | -1.43 |
| Fc1ccccc1C1CCN(Cc2nc(CC3CC3)no2)C1 (centres undefined) | -8.44 |  |
| CCOC(=O)c1ccc(CC(=O)c2oc3cc(O)ccc3c2C)o1 | -26.8 | 15.6 |
| C[C@@H]1CN([C@@H](C)CO)C(=O)c2cc(NC(=O)Nc3cccc4ccccc34)ccc2O[C@@H](C)CCCCO[C@@H]1CN(C)C(=O)CCCN(C)C | -4.93 | 10.1 |
| CC1(c2ccc3ccccc3c2)NC(=O)N(CC(=O)N2CCN(c3ccccc3O)CC2)C1=O (centres undefined) | -5.96 | -12.2 |
| CN(C(=O)c1cccc(NC(=O)Cc2cccc(NC(=O)C3CCN(C(=O)CCc4ccccc4)CC3)c2)c1)C1CC1 | -1.07 | -21.7 |
| O=C(Cn1cc(COc2c(F)c(F)cc(F)c2F)nn1)c1ccc(O)cc1 | -37 | 3.12 |
| Cc1ccc(CC2C(=O)N(c3cc(Cl)ccn3)C(=O)C2C)cc1 (centres undefined) | -39.8 |  |
| N#Cc1nc(-c2ccco2)oc1NCc1ccccc1Cl | -35.7 | 3.29 |

| SMILES | activity change [1] [%] | activity change [2] [%] |
| --- | --- | --- |
| COC(=O)[C@@H](Cc1c[nH]c2ccccc12)NCc1cccc(B(O)O)c1 | -9.99 | 11.5 |
| COc1ccc(NC(=O)CCS(=O)(=O)c2ccccc2Cl)cc1S(=O)(=O)Nc1ccc(Cl)cc1 | -21.3 | -6.92 |
| c1cc2cc(-c3c(-c4ccc5c(c4)OCO5)noc3-c3ccsc3)ccc2[nH]1 | 1.06 | -19.5 |
| CC(=O)c1cccc(NC(=O)COC(=O)C2CCCN2C(=O)c2cccs2)c1 (centres undefined) | -53.1 |  |
| CS(=O)(=O)c1ccc(C(=O)Nc2nc(-c3ccco3)c(-c3ccco3)s2)cc1 | -15.6 | -26.6 |
| O=C(CSc1nc(C2CCCCC2)nc2ccccc12)N1CCCC1 | -59.9 | 22.8 |
| O=C(O)c1ccc(-c2nc(-c3ccccc3)cs2)cc1 | -31.9 | -23.4 |
| O=C(O)c1ccc(-c2noc(-c3cccc(Cl)c3)n2)cc1 | -61.7 |  |
| COc1cc2[nH]c(=S)nc(NCCc3ccc(C)cc3)c2cc1OC | -14.4 | -2.19 |
| COc1ccc(NC(=O)c2sccc2-n2cccc2)cc1 | -29.1 |  |
| O=C(Cn1cnc2ccccc21)c1ccc(Br)cc1 | -10.5 | 44.5 |
| CC(C)CN1C(=O)c2ccc(C(=O)Nc3ccncc3)cc2C1=O | -36.6 | -46.6 |
| Cc1ccc(C(=O)c2coc3cc([N+](=O)[O-])c(O)c([N+](=O)[O-])c23)cc1 | -57.9 | 5.41 |
| CCOC(=O)C(C)Sc1nc(N2CCOCC2)c2c(c1C#N)CC(C)(C)OC2 (centres undefined) | -22.2 | -29.9 |
| CC1(C(=O)NS(=O)(=O)c2cccc(Cl)c2)CCN1C(=O)C1(c2ccc(Cl)cc2)CCC1 (centres undefined) | -21.4 | -10.6 |
| COc1ccc(CN2C(=O)CC(Cc3cc(C)cc(C)c3)C2=O)cc1OC (centres undefined) | -4.74 | -11.5 |
| COC(=O)c1ccc(CN2CCCC(CO)(Cc3ccccc3F)C2)cc1 (centres undefined) | -43.3 | 14 |
| CCCc1c(C(=O)Nc2ccc(OC)cc2)cnn1-c1ccccc1 | -37.3 | -36.9 |
| CC(C)Cc1csc(NC(=O)c2ccc(Br)cc2)c1C(=O)O | -65.3 |  |
| O=C(O)c1ccc(S(=O)(=O)N(Cc2ccc(F)cc2)C2CCCCC2)cc1 | -71.8 | -4.92 |
| O=C(Nc1ccc(Cl)cc1)N1C[C@H]2[C@@H](c3ccccc31)[C@@H](CO)N2C(=O)c1ccccn1 | -45.8 | -5.83 |
